Assay: Cysteine effective concentration (Ceff) measurement, thiol-disulfide equilibrium relative to glutathione
Format: physicochemical
Details: Hammett plot slope
Method: Cysteine Effective Concentration Measurements. Glutathione stock solutions were prepared by mixing 3 volumes of 0.2 M reduced glutathione (GSH) with 1 volume of 0.1 M oxidized glutatione (GSSG). Aliquots were stored at −80° C. and were stable for several months; use of a single batch eliminated any error in ΔΔG values that might arise from variability of total glutathione concentration. Thiol-disulfide equilibria were established by mixing 50 μL peptide stock (approximately 3 mM in water) with 50 μL glutathione stock, deoxygenating the acidic solution with vacuum/argon cycles from a Firestone valve, then adding 300 μL of deoxygenated buffer by syringe (0.2 M tris, pH 8.0; 1 mM EDTA; 67 mM tris base to titrate glutathione), followed by further deoxygenation of the mixture. The final pH of all reaction mixtures was 8.10±0.05. Solutions were stirred under argon and maintained at 20° C. in a water bath. After 1.5 h, successive aliquots (100 μL) were removed with a gastight syringe, immediately quenched by discharge into 400 μL of 3.1 mM HCl, and analyzed by HPLC with a minimum of delay. Ceff values were calculated from the molar ratios of the reduced and oxidized forms of peptide and glutathione (peak area ratios corrected for absorbance differences measured by HPLC), assuming 0.025 M total glutathione monomer (i.e., neglecting the minor amount (<1%) of glutathione present in mixed disulfides with peptide): Ceff=([peptideox]/[peptidered])×([GSH]^2/[GSSG]) [GSH]+2[GSSG]=0.025 M [GSSG]=0.025 M/{2+3.26 (GSH peak area/GSSG peak area)} [peptideox]/[peptidered]=equilibrium peak area ratio/absorbance ratio
Two or three samples from each reaction mixture were analyzed; there were no shifts in populations with time, and calculated Ceff values typically varied by less than 5% (equivalent to 30 cal/mol uncertainty in ΔΔG).

[1] = value in parentheses, tryptophan peptide as internal reference

Row | Substance | ρ, leu vs. trp (alanine peptide as reference) | ρ, leu vs. trp [1] | ρ, X3 vs. X8 (alanine peptide as reference) | ρ, X3 vs. X8 [1]
1 | Ac-C T X E G N K W T C-NH2 [X3W8] | 0.43 | 0.32 |  | 
2 | Ac-C T L E G N K X T C-NH2 [L3X8] |  |  | 0.98 | 0.86
3 | Ac-C T W E G N K X T C-NH2 [W3X8] | 0.47 | 0.43 | 1.15 | 1.11
